From PubChem BioAssay AID2551 (National Center for Advancing Translational Sciences (NCATS), 2010)
Values joined by “and” are separate entries in the source; they are usually repeats but may differ in a detail not shown here. Equal values may be shown once. In all, about 310,000 compounds went through this assay and about 17,000 (5.5%) were called active. Inconclusive results, whose numbers are uncertain, are shown with a selection of clear calls. Calls follow the shape of the dose curve; as a rule, active = well fitted inhibition curve with a large enough effect; inconclusive = small, poorly fitted or top-dose-only effect, or effect the other way; inactive = no such curve, though single readings can be large or run the other way. Potencies of inconclusive entries are doubtful fits and often do not repeat. The source holds several records for some structures; these can differ, active in one and inactive in another. Where a SMILES comes first, the peptide text is derived from it. [ ]: non-standard residue; d: D form. Orn = NCCC[CH](N)C(=O)O

By UniProt entry, the sequences of proteins in these tests, tags left out. Where a name states a change or a piece, a line headed by the entry shows the natural chain unless it says otherwise.
UniProt P51450: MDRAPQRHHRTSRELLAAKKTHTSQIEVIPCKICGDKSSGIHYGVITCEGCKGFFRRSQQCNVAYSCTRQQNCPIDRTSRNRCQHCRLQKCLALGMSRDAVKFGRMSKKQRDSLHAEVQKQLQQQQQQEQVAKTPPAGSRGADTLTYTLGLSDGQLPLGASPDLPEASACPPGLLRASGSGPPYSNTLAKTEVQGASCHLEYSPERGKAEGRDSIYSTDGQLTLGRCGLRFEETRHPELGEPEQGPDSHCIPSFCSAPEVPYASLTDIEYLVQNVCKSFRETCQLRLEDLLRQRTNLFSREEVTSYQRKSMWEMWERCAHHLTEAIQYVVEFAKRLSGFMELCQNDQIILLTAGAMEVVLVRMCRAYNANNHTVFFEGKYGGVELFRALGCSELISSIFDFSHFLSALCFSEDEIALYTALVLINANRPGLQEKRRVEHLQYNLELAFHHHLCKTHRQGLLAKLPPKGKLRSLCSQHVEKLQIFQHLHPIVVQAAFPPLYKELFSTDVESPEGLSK

These compounds were tested against Nuclear receptor ROR-gamma (Mus musculus) (UniProt P51450) (assay: qHTS for inhibitors of ROR gamma transcriptional activity). Settings: Drosophila S2 Gal4-RORgamma UAS-luciferase reporter, 20 h; activity change, negative = inhibition: at 53.6 µM (top of the series).
Text: NIH Molecular Libraries Probe Production Network [MLPCN] NIH Chemical Genomics Center [NCGC] MLPCN Grant: R03 DA026211-01 Assay Provider: Dan Littman, New York University Assay Overview: The retinoic acid-related orphan receptor (ROR) gamma is a transcription factor that has a central role in the differentiation of Th17 cells, a subset of T helper cells that secrete the inflammatory cytokines IL-17, IL-17F, and IL-22. Th17 cells have been implicated in graft versus host disease, autoimmune disease and asthma. ROR gamma is induced in naive T helper cells in the presence of TGF-beta combined with IL-6, IL-21, or IL-23, and thereafter directs the expression of the Th17 lineage cytokines. To study the mechanism of action of ROR gamma, an insect cell-based assay was screened. This Drosophila Schneider cell line was stably transfected with two vectors: a gene expressing a fusion of the Gal4 DNA binding domain and ROR gamma transactivation domain under the control of the metallothionine promoter and a Photinus luciferase reporter regulated by the Gal4 binding site enhancer, UAS. […] Small molecule inhibitors of ROR gamma activity are detected by a decrease in luciferase reporter activity.
Assay Protocol Summary: For screening, 600 cells in 4 uL/well were dispensed into white solid 1536-well plates (Grenier) using a solenoid-based dispenser. Following transfer of 23 nL compound or DMSO vehicle by a pin tool, the plates were incubated 1 hr at ambient temperature, and 1 uL/well copper sulfate (700 uM final concentration) was added. The plates were centrifuged 15 s at 1000 RPM and incubated 20 hr at ambient temperature. After addition of 1.5 uL Photinus luciferase detection reagent, the plates were incubated 10 min at ambient temperature and then read by an ViewLux (Perkin Elmer) to detect luminescence. Keywords: NIH Roadmap, MLPCN, MLI, MLSMR, qHTS, NCGC, qHTS, nuclear hormone receptor, retinoic acid-related orphan receptor, ROR gamma
% is scaled to controls: 0 for no effect and ±100 for the full control effect; potency is read from the fitted curve at half-maximal effect.
Also: nearly all actives have a fitted effect of over 60% in size.

| SMILES | Potency | activity change, negative = inhibition |
| --- | --- | --- |
| COc1ccc(Oc2nnc(C)c3ccccc23)cc1 | inconclusive: 0.355 µM [activator, full curve, poor fit] | – |
| CCOC(=O)C1=C(Cc2ccc(C)cc2)C(=O)c2ccccc2C1=O | active: 11.2 µM | – |
| COc1ccc(NC(=O)CN(c2ccc(C)cc2)S(=O)(=O)c2c(C)nn(C)c2C)cc1OC | active: 15.8 µM | – |
| COC(=O)CSc1nc(N)c2c3c(sc2n1)CCCC3 | inconclusive: 0.0056 µM [inhibitor, full curve, poor fit] | – |
| COc1ccc2nc(NC(=O)Cc3cccs3)sc2c1 | inconclusive: 0.501 µM [activator, single point] | – |
| c1ccc2c(c1)OCC(CNc1ncnc3sccc13)O2 (configuration not stated) | inconclusive: 0.0891 µM [activator, full curve, poor fit] | – |
| O=C(COc1ccc(Br)cc1CO)Nc1ccccc1F | inconclusive: 15.8 µM [activator, single point] | – |
| COc1ccccc1NC(=O)CSCC(=O)N1c2ccccc2CCc2ccccc21 | inconclusive: 35.5 µM [activator, single point] | – |
| C[N+](C)(C)CCCCCC(=O)/C=N/O | – | inactive: -0.902% |
| NNc1nc2ccc(F)cc2s1 | inconclusive: 35.5 µM [inhibitor, single point] | – |
| CC(C)OCCCN1CN(S(=O)(=O)c2ccc(Cl)cc2)c2nc3ccccc3nc21 | inconclusive: 5.62 µM [activator, partial curve] | – |
| COc1ccc(/C=C2\CCc3c2nc2ccccc2c3C(=O)O)cc1OC | active: 8.91 µM | – |
| CCOc1ccccc1N=NC1C(=O)N(C(N)=S)N=C1C (configuration not stated) | active: 0.708 µM | – |
| Cc1ccccc1Nc1nc(N)nc(COC(=O)/C=C/c2ccco2)n1 | inconclusive: 11.2 µM [inhibitor, partial curve, poor fit] | – |
| CCOC(=O)C(NC(=O)CC)(Nc1ccccc1)C(F)(F)F (configuration not stated) | – | inactive: -1.18% |
| Cc1ccc(C(=O)N(CC(=O)NC2CCCC2)c2ccccc2Cl)s1 | – | inactive: -10.7% |
| CCCCNC(=O)c1cccc(NC(=O)C(=O)c2ccccc2NC(C)=O)c1 | inconclusive: 10 µM [activator, partial curve] | – |
| CSc1ccc(/C=N/NC(=O)CN2CCN(Cc3ccccc3)CC2)cc1 | inconclusive: 35.5 µM [activator, partial curve, poor fit] | – |
| Cc1ccnc(Nc2nc(-c3ccc(F)cc3)cs2)c1 | active: 11.2 µM | – |
| CCOC(=O)c1c(-c2ccc(C)o2)csc1NC(=O)CN(C)CC(=O)Nc1ccc(C)cc1 | active: 12.6 µM | – |
| CC(OC(=O)c1cccc(S(=O)(=O)Nc2cccc(C(F)(F)F)c2)c1)C(=O)Nc1ccc2c(c1)OCCO2 (configuration not stated) | inconclusive: 22.4 µM [activator, single point] | – |
| CC(C)CC1NC(=O)C(CCCN)NC(=O)C(C(C)C)NC(=O)C2CCCN2C(=O)C(Cc2ccccc2)NC(=O)C(CC(C)C)NC(=O)C(CCCN)NC(=O)C(C(C)C)NC(=O)C2CCCN2C(=O)C(Cc2ccccc2)NC1=O (configuration not stated) (cyclo(FPV[Orn]LFPV[Orn]L); configuration not given here) | active: 0.0891 µM | – |
| CCOC(=O)NC(N(O)c1cccc(Cl)c1)C(Cl)(Cl)Cl (configuration not stated) | active: 5.01 µM | – |
| CC1=C(C(=O)OC(C)(C)C)C(c2ccc(Br)cc2)NC(=O)N1CCCC(=O)O (configuration not stated) | – | inactive: -10.5% |

Not a retest: 3 of the compounds above.

| SMILES | Potency | activity change, negative = inhibition |
| --- | --- | --- |
| COc1ccc(Oc2nnc(C)c3ccccc23)cc1 | inconclusive: 0.355 µM [activator, full curve, poor fit] | – |
| CCOC(=O)C1=C(Cc2ccc(C)cc2)C(=O)c2ccccc2C1=O | active: 11.2 µM | – |
| COc1ccc(NC(=O)CN(c2ccc(C)cc2)S(=O)(=O)c2c(C)nn(C)c2C)cc1OC | active: 15.8 µM | – |

A different layout for 2 compounds above.
SMILES	Potency	activity change, negative = inhibition
CCOc1ccccc1N=NC1C(=O)N(C(N)=S)N=C1C (configuration not stated)	active: 0.708 µM	–
CSc1ccc(/C=N/NC(=O)CN2CCN(Cc3ccccc3)CC2)cc1	inconclusive: 35.5 µM [activator, partial curve, poor fit]	–

More records follow.

| SMILES | Potency | activity change, negative = inhibition |
| --- | --- | --- |
| CCCNCCC(c1ccco1)c1ccccc1OC (configuration not stated) | inconclusive: 17.8 µM [inhibitor, partial curve] | – |
| CSC1=NC(C(Cl)(Cl)Cl)N=C(c2ccc(C)cc2)N1 (configuration not stated) | inconclusive: 35.5 µM [activator, single point] | – |
| COc1cc([N+](=O)[O-])ccc1NC(=O)N1CCCCCC1 | active: 12.6 µM | – |
| O=c1c2ccccc2nc(SCc2ccccc2)n1CC1CCCO1 (configuration not stated) | inconclusive: 20 µM [activator, partial curve, poor fit] | – |
| CCOC(=O)c1[nH]c(C)c(C(=O)Nc2cccc(Cl)c2C)c1C | – | inactive: 10% |
| Cc1onc(-c2ccccc2)c1-c1n[nH]c(=S)n1-c1ccccc1Cl | active: 4.47 µM | – |
| CCOC(=O)c1ccccc1NC(=S)N1CCCCC1 | inconclusive: 25.1 µM [inhibitor, single point] | – |
| CS(=O)(=O)Nc1ccc(C(=O)NCCSc2ccc(Cl)cc2)cc1 | inconclusive: 22.4 µM [activator, partial curve, poor fit] | – |
| CN(C)c1cccc(C(=O)Nc2ccc(N3CCOCC3)cc2)c1 | inconclusive: 7.08 µM [activator, partial curve] | – |
| Cc1cc(C)cc(OC(=O)CCN2C(=O)c3ccccc3C2=O)c1 | inconclusive: 35.5 µM [activator, single point] | – |
| CCn1cc(C(=O)O)c(=O)c2cnc(N3CCN(C(=S)NC(=O)c4ccc(F)c(F)c4)CC3)nc21 | active: 2.51 µM | – |
| O=C(NC(=S)N(CC1CCC1)CC1CCCO1)c1cccc([N+](=O)[O-])c1 (configuration not stated) | active: 56.2 µM | – |
| O=C(O)/C=C/C(=O)Nc1ccccc1SC(F)(F)C(F)(F)C(F)(F)F | – | inactive: 1.05% |
| CC(C)(C)C(=O)NC(=S)Nc1ccc(Cl)c(C(=O)O)c1 | inconclusive: 11.2 µM [activator, partial curve] | – |
| Cc1nn(Cc2ccc(Cl)cc2)c(C)c1NC(=O)C1CC=CCC1C(=O)O (configuration not stated) | – | inactive: 0.389% |
| Cc1cc(C)nc(NC(=S)NC(=O)c2ccccc2)n1 | inconclusive: 31.6 µM [inhibitor, single point] | – |
| CCc1c(C(=O)NN2C(=O)C3CCCCC3C2=O)csc1C (configuration not stated) | inconclusive: 31.6 µM [activator, single point] | – |
| Cc1csc(NC(=O)CSc2nc3[nH]ncc3c(=O)[nH]2)n1 | – | inactive: 1.87% |
| CCCOc1ccc(NC(=O)CC2C(=O)N(CC)C(=S)N2Cc2cccs2)cc1 (configuration not stated) | inconclusive: 22.4 µM [activator, single point] | – |
| CCOC(=O)c1sc2nc(CC(=O)OC)nc(NCc3ccc(Cl)cc3)c2c1C | – | inactive: 23.3% |
| O=C(CN1CCc2ccccc21)NC(=O)NCc1ccco1 | inconclusive: 17.8 µM [activator, single point] | – |
| Oc1sc(C=Nc2ccc(F)cc2)c2ccccc12 | – | inactive: 5.82% |
| Cc1c(C(=O)NCCn2ccc3ccccc32)cccc1[N+](=O)[O-] | inconclusive: 1.41 µM [activator, full curve, poor fit] | – |
| Cn1c(CCN2CCN(c3ccccc3)CC2)nc2cc(NC(=O)c3ccco3)ccc21 | inconclusive: 7.94 µM [activator, partial curve] | – |

| SMILES | Potency | activity change, negative = inhibition |
| --- | --- | --- |
| Cn1c(Cn2c(=O)sc3ccccc32)nnc1SCC(=O)Nc1cccc(Cl)c1 | inconclusive: 0.141 µM [inhibitor, single point] | – |
| O=C(NC(=S)Nc1nc(-c2ccccc2)cs1)c1ccco1 | active: 3.55 µM | – |
| S=C(NCc1ccccc1)NCc1ccccc1 | inconclusive: 5.62 µM [inhibitor, single point] | – |
| O=C(c1ccnc(Cl)c1)N1CCCC(N2CCN(c3ccccc3F)CC2)C1 (configuration not stated) | – | inactive: -0.369% |
| COC(=O)[C@H](Cc1ccccc1)NC(=O)N1CCC(C)CC1 | inconclusive: 6.31 µM [activator, single point] | – |
| CCOc1ccc(-c2nnc(SCC(=O)N3CCOCC3)o2)cc1 | inconclusive: 31.6 µM [inhibitor, single point] | – |
| O=C(O)C1OC(Oc2cc3oc(-c4ccccc4)cc(=O)c3c(O)c2O)C(O)C(O)C1O (configuration not stated) | – | inactive: -4.1% |
| Cn1ccnc1SCc1cn2cc(Br)ccc2n1 | active: 11.2 µM | – |
| COc1cc2nc(=S)n3[nH]c(COc4ccccc4C)nc3c2cc1OC | active: 0.199 µM | – |
| CCCNC(=O)c1nnsc1S(=O)(=O)c1ccc(Cl)cc1 | active: 1.12 µM | – |
| CC(=O)Nc1ccc(NC(=O)CSc2nccn2Cc2ccc(Cl)cc2)cc1 | inconclusive: 35.5 µM [activator, single point] | – |
| O=C(O)c1cc(O)c2c(c1)C(=O)c1cc(O)cc(O)c1C2=O | inactive and active: 6.31 µM | – |
| COc1ccc(CNC(=O)Cn2cnc3c(=O)n(C)c(=O)n(C)c32)cc1 | inconclusive: 35.5 µM [inhibitor, single point] | – |
| CCN(CC)CCN1C(=O)C(=O)/C(=C(/O)c2cnn(-c3ccccc3)c2C)C1c1cccs1 (configuration not stated) | inconclusive: 5.62 µM [inhibitor, single point] | – |
| CC(Cc1ccco1)NC(=O)c1ccc(C(F)(F)F)cc1 (configuration not stated) | – | inactive: -36.9% |
| CN1CCC(=NNc2ncnc3sc4c(c23)CCCC4)CC1 | inconclusive: 35.5 µM [inhibitor, single point] | – |
| Cc1cccc(NC(=O)C2=C(O)c3ccccc3N(C)S2(=O)=O)c1 | inconclusive: 35.5 µM [activator, single point] | – |
| Cc1[nH]n(-c2ccccc2)c(=O)c1/C=N/Nc1nncc(-c2ccccc2)n1 | active: 0.0501 µM | – |
| O=C(Nc1nnc(-c2ccco2)s1)C1CCCCC1 | inconclusive: 15.8 µM [activator, partial curve] | – |
| Cc1cccc(CSCc2ccc(C(=O)NC(C)C)o2)c1 | inconclusive: 35.5 µM [activator, single point] | – |
| NNc1ccc(S(=O)(=O)N2CCCCC2)cn1 | inconclusive: 35.5 µM [inhibitor, single point] | – |
| Cc1cccc(Cn2cnc3c(sc4nc(C)cc(C)c43)c2=O)c1 | – | inactive: -14.4% |
| CCOC(=O)Cc1c(C)nc2c(-c3cccc(Br)c3)c[nH]n2c1=O | active: 4.47 µM | – |
| O=C(Nc1ccccc1C(=O)OCC(=O)N1CCc2ccccc2C1)c1ccco1 | inconclusive: 6.31 µM [activator, partial curve] | – |
